Data from patent US12187767B2 (priority 2021, dated 2025).
Entries after “also recorded” stand apart in the source; their conditions may differ. Part of at least one peptide drawing is inferred or uncertain, most often the ends. Ends that are not written are not given here.

Columns and labels:
Assay type in all cases: cell-based
[1] = tested on: MDA-MB-231 cells; experiment: Complement-mediated cytotoxicity (anti-CXCR4 antibody plus NHS or NIS, trypan blue exclusion); conditions: 280 nM PEG-SMRwt-Clu or 560 nM SMRwt-CPP
Description: (§1) Therefore, it was of interest to see whether SMR peptide driven mortalin sequestration and functional disruption increases cell sensitivity to complement-induced cell death. Accordingly, MCF-7, MDA-MB-231, and K562 cells were treated with 280 nM PEG-SMRwt-Clu peptide or 560 nM SMRwt-CPP peptide alone for 60 min at 37° C., followed by treatment with 1 μg/mL anti-CXCR4 antibody and 50 μL normal human serum (NHS; as a source of complement) or normal heat-inactivated (human) serum (NIS) for an additional 60 min at 37° C. (FIG. 8). PEG-SMRmut-Clu peptide and SMRmut-CPP peptide were used as negative controls. The percentage of stained (dead) cells was determined by trypan blue exclusion and is representative of 3 independent experiments.
(§2) To further validate the ability of mortalin neutralization to render or enhance complement-mediated cytotoxicity, MCF-7, MDA-MB-231 and K562 cells were transfected with vectors expressing mortalin siRNAs or negative control siRNAs, incubated for 72 hours at 37° C., treated with anti-CXCR4 antibody for 30 minutes at 4° C. followed by incubation with either NHS or NIS for 60 minutes at 37° C.

[2] = tested on: K562 cells; experiment: as above; conditions: 280 nM PEG-SMRwt-Clu or 560 nM SMRwt-CPP
Description: as §1, §2

[3] = tested on: MCF-7 cells; experiment: as above; conditions: 280 nM PEG-SMRwt-Clu or 560 nM SMRwt-CPP
Description: as §1, §2

[4] = tested on: MDA-MB-231 cells; experiment: Acetylcholinesterase (AchE) assay of exosome/EV release; conditions: five-day treatment at 37° C.
Description: (§3) 1.3. EV isolation and purification. EVs were isolated from cells by differential centrifugation as previously described (Ali SA. et al., 2010). Untreated cells were used as a control. Briefly, the above treated and untreated cell culture supernatants were centrifuged at 400×g for 10 minutes. The supernatants were transferred to a clear tube and centrifuged at 10,000×g for 30 minutes. The supernatants from the second spin were […] ultracentrifuged at 200,000×g for 2 hours to pellet the EVs. Finally, the EV pellets were re-suspended with PBS and stored at 4° C. until used for analysis.
(§4) 1.4. Exosome characterization by acetylcholinesterase (AchE) assay. Purified EVs were quantitated by measurement of AchE as described (Ellman et al., 1961). Briefly, a 100 mM dithibionitrobenzoic (DTNB) solution was prepared for use as a stock color indicator, and a 28.9 mg/mL acetylthiocholine iodide in PBS solution was prepared as a stock substrate. The stock substrate stock can be stored at −20° C. up to one month, while the color indicator can be stored at 4° C. for two weeks. […] After 20 min incubation, AchE activity was measured at 450 nm using a SpectroMax M5 fluorimeter.

[5] = tested on: MCF-7 cells; experiment: as above; conditions: five-day treatment at 37° C.
Description: as §3, §4

[6] = tested on: MDA-MB-231 cells; experiment: Western blot analysis of EV protein content; conditions: 48 hours treatment
Description: as §3
(§5) 1.6. Western blot analysis. EVs were isolated from culture supernatants as described above. Protein concentrations were determined by measuring absorbance at 280 nm (Nanodrop 2000). Protein samples were denatured in SDS-PAGE sample buffer by heating at 95° C. for 15 min. Criterion TGX Precast Gels (4-20% Bio-Rad, Richmond, CA) were used to separate the proteins and blotted as previously described (Huang MB. et al 2004). Blots were incubated with the primary antibodies, anti-CD63 and anti-Alix, followed by goat or rabbit anti-Ig secondary antibodies. Specific bands were detected using ECL chemiluminescent substrate (Santa Cruz Biotechnology, Santa Cruz, CA) and visualized on the ImageQuant LAS 4000 imaging system (GE Healthcare, Piscataway, NJ 08854).
(§6) Western blot analysis was used to examine the effects of the SMRwt peptides, PEG-SMRwt-Clu peptide and SMRwt-CPP peptide, and the mortalin inhibitors MKT-077, Omeprazole, and DMA on EV protein content in MCF-7, MDA-MB-231 and K562 cells. Negative control treatments included the PEG-SMRmut-Clu peptide, […] (SEQ ID NO: 49) and the SMRmut-CPP peptide, […] (SEQ ID NO: 50). EVs were isolated from all treated and untreated cell lines screened. Western blot analyses were carried out to evaluate the expression levels of the exosomal proteins, Alix, mortalin, and vimentin in MCF-7 cells (FIG. 7, Panel A, left sub-panel), MDA-MB-231 cells (FIG. 7, Panel A, middle sub-panel), and K562 cells (FIG. 7, Panel A, right sub-panel).

[7] = tested on: K562 cells; experiment: Western blot analysis of EV protein content; conditions: 48 hours treatment
Description: as §3, §5, §6

[8] = tested on: MCF-7 cells; experiment: Western blot analysis of EV protein content; conditions: 48 hours treatment
Description: as §3, §5, §6

[9] = tested on: MCF-7, MDA-MB-231 and K562 cells; experiment: Exosome/EV release, overall statements across cell lines (AchE, NanoSight, Western blot); conditions: five days at 37° C., AchE assay
Description: Acetylcholinesterase (AchE) assays, NanoSight analysis and Western blot analysis were performed to characterize EVs released from MCF-7 and MDA-MB-231 cells treated for 48 hr with the various peptides.
To further examine the underlying mechanism for blocking exosome release, a study was extended to examine the effects of the SMRwt peptides, PEG-SMRwt-Clu peptide and SMRwt-CPP peptide, and the mortalin inhibitors MKT-077, Omeprazole, and DMA on exosome release. In particular, acetylcholinesterase (AchE) assays, NanoSight analysis and Western blot analysis were performed to characterize EVs released from MCF-7, MDA-MB-231 and K562 cells. Panels A, B and C depict the relative numbers of EVs released as a function of time as measured by an acetylcholinesterase (AchE) assay in MCF-7 cells (FIG. 6, Panel A); MDA-MB-231 cells (FIG. 6, Panel B); and K562 cells (FIG. 6, Panel C).

[10] = then anti-CXCR4 antibody and NHS

VGFPVAAVGFPVGRKKRRQRRRPPQ [SMRwt-CPP] was tested. Which “cell death under complement-negative conditions” value ([1]; 60 min) did it give?
The value was 3.6%.

What about the “cell death under complement-positive conditions” value [1, 10] of the same sequence?
Its value is 9%.

What about the “cell death under complement-negative conditions” value ([2]; 60 min) of the same sequence?
The value was 4.3%.

And the “cell death under complement-positive conditions” value [2, 10]?
Its value is 23%.

What about the “cell death under complement-negative conditions” value ([3]; 60 min) of the same sequence?
The value was 2.1%.

What about the “cell death under complement-positive conditions” value [3, 10] of the same sequence?
The value was 29%.

And the “average AChE concentration levels throughout day 1 to 5” value [4]?
The value was 29 mU/mL.

What about the “average AChE concentrations throughout days 1 to day 5” value [5] of the same sequence?
The value was 22 mU/mL.

And the “Alix expression in EVs” value [6]?
Its value is “significantly decreased”.

What about the “Mortalin expression in EVs” value [6] of the same sequence?
Its value is “significantly decreased”.

What about the “Vimentin expression in EVs” value [6] of the same sequence?
Its value is “significantly decreased”.

What about the “Alix expression in EVs” value [7] of the same sequence?
The value was “significantly decreased”.

What about the “Mortalin expression in EVs” value [7] of the same sequence?
The value was “significantly decreased”.

What about the “Mortalin expression in EVs” value [8] of the same sequence?
The value was “no significant changes”.

What about the “Alix expression in EVs” value ([8]; relative to negative controls) of the same sequence?
Its value is “significantly decreased”.

What about the “Vimentin expression in EVs” value ([8]; relative to negative controls) of the same sequence?
Its value is “significantly decreased”.

What about the “exosome/EV release (number of EVs released)” value [9] of the same sequence?
Its value is “reduced the number of EVs released; also recorded: blocked exosome release”.
